Measured values as given in PubChem BioAssay AID493014 (National Center for Advancing Translational Sciences (NCATS), 2011).
“And” between values parts separate entries of the source, which are not always exact repeats. Equal values may be shown once. Some of the results follow. Shown are side measurements of this screen, not its main read-out; they come without a call. Most of these compounds were active or inconclusive in the main read-out, so they are no random draw. The note in brackets gives the kind of curve behind each potency; many fits are weak.

Experiment: qHTS Assay to Find Inhibitors of Chronic Active B-Cell Receptor Signaling
Details: ABC-DLBCL IkBa-CBG/CBR reporter, luminescence ratio (green luciferase fused to IkBa over red control in TMD8 lymphoma cells), 4 h
Outline: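 TMD8 human ABC-DLBCL cells with doxycycline-inducible IκBα–green luciferase fusion and unfused red luciferase, in 0.5% FBS medium; compounds up to 46 uM, 4 h at 37C. Green/red luminescence ratio, filter-overlap corrected, fitted to concentration-response curves.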

[1] = measured here: CBR red luminescence, cell number

Q: With `O=C(CN1C(=O)C2CC=CCC2C1=O)Nc1nc2ccccc2[nH]1` (centres undefined) as the molecule, how does the AC50 [1] read?
A: 8.91 µM [falling, partial curve]

Q: With `CC(=O)Nc1ccc(S(=O)(=O)N[C@@H](C)C(=O)OCc2cc([N+](=O)[O-])cc3c2OCOC3)cc1` as the molecule, how does the AC50 [1] read?
A: 17.8 µM [rising, single point]

Q: For `O=C1C(Cl)=C(Nc2cccc(O)c2)C(=O)N1Cc1ccccc1`, which AC50 [1] is on record?
A: 10 µM [falling, partial curve, poor fit]

Q: With `CCOc1cccc(C(=O)Nc2ccc3oc(-c4cccnc4)nc3c2)c1` as the molecule, how does the AC50 [1] read?
A: 3.98 µM [falling, single point]

Q: For `COc1cccc(CN(C)C(=O)CSCC(=O)Nc2cccc(C)c2)c1OC`, which AC50 [1] is on record?
A: 2.31 µM [rising, single point]

Q: For `CN(CC(=O)Nc1ccc(Cl)cc1)C(=O)CNC(=O)Cc1cccc2ccccc12`, which AC50 [1] is on record?
A: 0.259 µM [falling, full curve, poor fit]

Q: With `O=C(NC(=S)Nc1ccc(Oc2ccccc2)cc1)c1ccc(Cl)cc1` as the molecule, how does the AC50 [1] read?
A: 8.2 µM [falling, partial curve, poor fit]

Q: For `COc1cc(-c2cc(-c3ccccc3)nc(SCC(=O)O)c2C#N)cc(OC)c1OC`, which AC50 [1] is on record?
A: 10 µM [falling, partial curve]

Q: Which AC50 [1] does the source give for `COC(=O)c1cccc(NC(=O)CN2CCc3ccccc3C2)c1` here?
A: 17.8 µM [falling, single point]

Q: With `Cc1ccccc1C(=O)Nc1ccc(O)cc1C(=O)O` as the molecule, how does the AC50 [1] read?
A: 7.08 µM [falling, partial curve]

Q: Which AC50 [1] does the source give for `COc1cccc(/C=N/Nc2ncccc2[N+](=O)[O-])c1OC` here?
A: 8.91 µM [falling, partial curve, poor fit]

Q: For `Cc1cccc(/C(N)=N/OC(=O)c2ccc(Cl)cc2Cl)c1`, which AC50 [1] is on record?
A: 1.84 µM [rising, full curve, poor fit]

Q: With `Cc1nc2c(c(=O)c3ccccc3n2C)c(=O)n1C1CCCCCC1` as the molecule, how does the AC50 [1] read?
A: 35.5 µM [falling, single point]

Q: With `COc1cccc(NC(=O)Nc2ccccc2C(N)=O)c1` as the molecule, how does the AC50 [1] read?
A: 15.8 µM [falling, partial curve]

Q: With `Cc1ccc2c(c1)CCCN2C(=O)c1ccc2c(c1)OCO2` as the molecule, how does the AC50 [1] read?
A: 32.6 µM [rising, partial curve, poor fit]

Q: With `O=C(CNc1ccc2ccccc2c1)N/N=C/c1ccncc1` as the molecule, how does the AC50 [1] read?
A: 12.6 µM [falling, partial curve]

Q: With `Cc1nc(-c2cccc(NC(=O)c3ccc(-n4cccn4)cc3)c2)cs1` as the molecule, how does the AC50 [1] read?
A: 14.6 µM [falling, partial curve, poor fit]

Q: With `Cc1c(Cl)cccc1NC(=S)N1CCCN(Cc2ccc(F)cc2)C1` as the molecule, how does the AC50 [1] read?
A: 35.5 µM [falling, single point]

Q: Which AC50 [1] does the source give for `CCn1c(=O)cc(SCC(=O)NCc2ccco2)c2ccccc21` here?
A: 12.6 µM [rising, single point]

Q: With `O=C(Cc1ccc(Cl)cc1)SCc1ccccc1` as the molecule, how does the AC50 [1] read?
A: 7.31 µM [rising, partial curve]

Q: Which AC50 [1] does the source give for `OCCN(Cc1ccccc1)Cc1ccc(Cl)cc1Cl` here?
A: 4.47 µM [rising, full curve]

Q: With `O=c1[nH]c2ccccc2nc1-c1ccc(Cl)cc1` as the molecule, how does the AC50 [1] read?
A: 0.224 µM [rising, full curve, poor fit]

Q: Which AC50 [1] does the source give for `c1csc(-c2nc3ccccn3c2NC2CCCCC2)c1` here?
A: 25.1 µM [falling, single point]

Q: Which AC50 [1] does the source give for `O=Cc1ccc(OCc2ccc3ccccc3c2)cc1` here?
A: 1.58 µM [falling, full curve]

Q: Which AC50 [1] does the source give for `N#CCSc1ncccc1-c1nc2ccccc2[nH]1` here?
A: 20.6 µM [falling, single point]

Q: For `O=c1c2ccccc2ncn1-c1ccc([N+](=O)[O-])cc1[N+](=O)[O-]`, which AC50 [1] is on record?
A: 35.5 µM [falling, single point]

Q: For `Cc1csc(SCC(=O)NC23CC4CC(CC(C4)C2)C3)n1`, which AC50 [1] is on record?
A: 3.66 µM [falling, full curve, poor fit]

Q: Which AC50 [1] does the source give for `Cc1ccc(N2C(=O)[C@@H]3[C@H](C2=O)[C@H]2C=CC=NN2[C@@H]3C(=O)Nc2ccccc2)cc1` here?
A: 17.8 µM [falling, partial curve]

Q: With `C#CCOCCOCCOCCNc1nc(N2CCN(C(=O)CCCCCCCCCCNC(=O)[C@H](CO)n3cc(CCCSC)nn3)CC2)nc(N2CCN(C(=O)CCCCCCCCCCNC(=O)[C@@H]([C@H](C)O)n3cc(C)nn3)CC2)n1` as the molecule, how does the AC50 [1] read?
A: 3.26 µM [rising, partial curve, poor fit]

Q: Which AC50 [1] does the source give for `CCCOc1ccc(C(=O)CCN2CCN(C(=O)OCC)CC2)cc1` here?
A: 7.08 µM [falling, partial curve]

Q: Which AC50 [1] does the source give for `CNc1nnc(-c2ccc(N(C)C)cc2)s1` here?
A: 18.4 µM [falling, partial curve]

Q: Which AC50 [1] does the source give for `Cc1cc(C)c(C)c(C(=O)C2OC(=O)C(C)(C)C(=O)C2(C)C)c1C` (centres undefined) here?
A: 2.31 µM [rising, full curve]

Q: For `COc1ccc(-c2c(C#Cc3ccsc3)c3cc(-c4ccc5[nH]ccc5c4)ccc3n2C)cc1`, which AC50 [1] is on record?
A: 13 µM [rising, partial curve, poor fit]

Q: With `CCN(CC)Cc1oc(-c2ccccc2)cc1C(=O)O` as the molecule, how does the AC50 [1] read?
A: 15.8 µM [rising, partial curve, poor fit]

Q: With `Cc1ccc(S(=O)(=O)Oc2ccc(/C=N/NC(=O)c3nn(C)cc3Cl)cc2)cc1` as the molecule, how does the AC50 [1] read?
A: 2.91 µM [falling, partial curve, poor fit]

Q: With `CCOC(=O)c1cc(-c2ccccc2)n(CCC(=O)NC2CCCCC2)c1C` as the molecule, how does the AC50 [1] read?
A: 8.91 µM [rising, partial curve]

Q: Which AC50 [1] does the source give for `O=C(Cn1c(=O)n2ncnc2c2c3c(sc21)CCCC3)c1ccccc1` here?
A: 14.6 µM [rising, partial curve]

Q: With `Cc1cc(SCC(=O)N2CCN(C(=O)c3ccco3)CC2)c(C)cc1Br` as the molecule, how does the AC50 [1] read?
A: 18.4 µM [falling, partial curve]

Q: Which AC50 [1] does the source give for `CC(=O)c1ccc2c(c1)Nc1ccccc1S2` here?
A: 1.46 µM [rising, full curve, poor fit]

Q: For `CC(C)C(=O)Nc1nc(-c2ccccc2)ns1`, which AC50 [1] is on record?
A: 20.6 µM [falling, single point]

Q: With `COc1ccc(CCNC(=O)CSc2nc(N)c3c(C)c(C)oc3n2)cc1OC` as the molecule, how does the AC50 [1] read?
A: 18.4 µM [rising, single point]

Q: Which AC50 [1] does the source give for `CCn1c(SCC(=O)Nc2ccccc2N2CCOCC2)nnc1-c1ccccc1` here?
A: 4.61 µM [falling, single point]

Q: With `C=CCNC(=O)NC(=O)CN1C(=O)NC(c2ccccc2)(c2ccccc2)C1=O` as the molecule, how does the AC50 [1] read?
A: 4.47 µM [falling, partial curve, poor fit]

Q: With `COc1ccc(Br)cc1CNC(=O)C1CCN(C(=O)N(C)C)CC1` as the molecule, how does the AC50 [1] read?
A: 35.5 µM [rising, single point]

Q: With `CCC(CC)NC(=O)c1ccc(NS(=O)(=O)c2ccc3[nH]c(=O)[nH]c3c2)cc1` as the molecule, how does the AC50 [1] read?
A: 14.1 µM [falling, single point]

Q: For `COc1cc2c3nnc(-c4ccc(F)cc4)c-3cn(Cc3ccccc3F)c2cc1OC`, which AC50 [1] is on record?
A: 14.1 µM [rising, partial curve]

Q: Which AC50 [1] does the source give for `Cc1[nH]nc(SCC(=O)N2CCCCCC2)c1[N+](=O)[O-]` here?
A: 11.2 µM [falling, partial curve]

Q: Which AC50 [1] does the source give for `C=CCN(c1ccc(C(=O)Nc2ccc3c(c2)OCO3)cc1)S(C)(=O)=O` here?
A: 2.82 µM [falling, full curve, poor fit]

Q: For `Cc1[nH]n(-c2ccccc2)c(=O)c1N=Nc1ccccc1O`, which AC50 [1] is on record?
A: 0.126 µM [falling, full curve, poor fit]

Q: Which AC50 [1] does the source give for `O=[N+]([O-])c1ccccc1/C=N/OCc1ccccc1` here?
A: 8.91 µM [rising, partial curve, poor fit]

Q: With `COC(=O)c1ccccc1NC(=O)CNc1cc(Cl)ccc1N1CCOCC1` as the molecule, how does the AC50 [1] read?
A: 8.91 µM [falling, partial curve, poor fit]

Q: With `O=C(NC1CC1)c1c[nH]c2ccc(S(=O)(=O)Nc3cccc(C(F)(F)F)c3)cc2c1=O` as the molecule, how does the AC50 [1] read?
A: 0.794 µM [falling, full curve, poor fit]

Q: Which AC50 [1] does the source give for `CCCCn1c(=O)[nH]c(=O)c2c1nc(-c1cc3c(cc1Br)OCO3)n2C` here?
A: 22.4 µM [rising, partial curve, poor fit]

Q: For `CC1=CC(C)=Nc2ccc(C)cc2N1`, which AC50 [1] is on record?
A: 6.51 µM [rising, single point] and 3.66 µM [rising, full curve]

Q: With `Clc1cccc(-c2nnc(-c3ccccc3)o2)c1` as the molecule, how does the AC50 [1] read?
A: 20.6 µM [falling, single point]

Q: With `CC1CCCCC1NC(=O)/C(C#N)=C/c1ccccc1F` (centres undefined) as the molecule, how does the AC50 [1] read?
A: 14.6 µM [falling, partial curve]

Q: For `CN1C(=O)Cc2cc(S(=O)(=O)Nc3ccc(Cl)cc3)ccc21`, which AC50 [1] is on record?
A: 8.91 µM [falling, partial curve, poor fit]

Q: For `O=C1N(Cc2cccc(Cl)c2)C[C@@H]2C[C@@H](c3ccccn3)N3CCC[C@@]123`, which AC50 [1] is on record?
A: 12.6 µM [falling, partial curve, poor fit]

Q: Which AC50 [1] does the source give for `CC1CCCCN1C(=O)CSc1nnc(-c2ccccc2F)o1` (centres undefined) here?
A: 6.31 µM [rising, single point]

Q: For `COc1c(C)cc(S(=O)(=O)N2CCCC2)c(C)c1C`, which AC50 [1] is on record?
A: 16.4 µM [rising, partial curve, poor fit]

Q: For `Cc1cccc(OCc2ccc(C(=O)Nc3ccc(F)cc3)cc2)c1`, which AC50 [1] is on record?
A: 29.1 µM [rising, single point]

Q: For `Cc1ccc(C)c(-n2nnnc2Sc2nnnn2-c2ccccc2)c1`, which AC50 [1] is on record?
A: 7.08 µM [falling, partial curve]

Q: For `CC(=O)C(=Nc1ccccc1Cl)NNc1ccc(Cl)cc1`, which AC50 (measured here: IkBa-CBG green luminescence) is on record?
A: 32.6 µM [rising, partial curve, poor fit]

Q: With `CCOc1ccc(N2C(=O)S/C(=C\c3ccc(O)c(OCC)c3)C2=O)cc1` as the molecule, how does the AC50 [1] read?
A: 35.5 µM [rising, single point]
